Among the data in publication doi:10.1101/720508 are binding values, retold here.

Results are given in words; binding and its absence hold for the method and conditions named. Binding seen in cells or lysates may run through a third protein. Here binding means that the protein was enriched with, or labelled near, the bait; the list need not be complete.

The target in the experiment is T1, GPR151 (mouse (endogenous in IPN)) (UniProt Q7TSN6).
T1 sequence: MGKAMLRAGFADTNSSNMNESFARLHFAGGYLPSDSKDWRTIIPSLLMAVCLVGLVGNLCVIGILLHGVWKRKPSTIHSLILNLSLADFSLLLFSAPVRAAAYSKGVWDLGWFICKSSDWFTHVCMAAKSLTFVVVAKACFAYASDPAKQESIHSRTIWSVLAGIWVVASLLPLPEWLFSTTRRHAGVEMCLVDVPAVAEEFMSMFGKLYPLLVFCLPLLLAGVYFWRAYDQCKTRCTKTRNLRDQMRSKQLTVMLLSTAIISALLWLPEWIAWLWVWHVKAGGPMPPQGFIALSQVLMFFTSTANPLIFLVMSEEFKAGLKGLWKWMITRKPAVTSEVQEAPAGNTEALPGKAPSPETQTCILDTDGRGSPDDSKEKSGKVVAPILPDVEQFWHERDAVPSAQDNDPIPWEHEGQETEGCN
The experiment is described as follows: affinity purification with mass spectrometry.

As for “AT1A2 (sodium/potassium ATPase catalytic α-subunit) (from UniProt Q6PIE5 1-1020)”, the binding entry is given as “binds”.
